Measured values as given in article PMC3567137.
These are yes or no findings as the source states them, for the method shown. In cells and extracts the contact can be indirect. Some entries that bind do so weakly or less than the wild type.

By UniProt entry, the sequences of proteins in these tests, tags left out. Where a name states a change or a piece, a line headed by the entry shows the natural chain unless it says otherwise. Chains listed by the source or under a name are the forms on record and can include a tag or linker.
GST-Abd-B313ΔHD (a.a. 313 to 493 lacking HD a.a. 384–445) (P09087, form named): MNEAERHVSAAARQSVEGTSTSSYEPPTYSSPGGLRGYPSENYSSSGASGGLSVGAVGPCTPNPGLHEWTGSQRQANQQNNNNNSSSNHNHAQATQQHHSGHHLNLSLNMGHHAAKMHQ

Tests used:
[1] = biological target: GST-AbdB-HD (Abd-B homeodomain, a.a. 386–446) (Drosophila melanogaster) (UniProt P09087); test: pull-down; GST fusion from bacterial crude extract on glutathione agarose beads (30 µg beads-conjugated protein) with 30 µl S^35-labelled in vitro translated protein; binding buffer 10 mM Tris-Cl pH 8, 5 mM EDTA, 0.5% DTT, 1 mM MgCl2, 150 mM NaCl; 4 hr at 4°C; no DNA; phosphorimager; only the target purified
[2] = biological target: GST-Abd-B313ΔHD (a.a. 313 to 493 lacking HD a.a. 384–445) (Drosophila melanogaster) (UniProt P09087); test: as above
[3] = biological target: GST-Abd-B313 (Abd-B C-terminal fragment, a.a. 313 to 493) (Drosophila melanogaster) (UniProt P09087); test: as above
[4] = biological target: GST-AbdB-HD (Abd-B homeodomain, a.a. 386–446) (Drosophila melanogaster) (UniProt P09087); test: pull-down; as a1, GST-AbdB-HD on beads with S^35-labelled Hth and unlabelled (cold) Exd protein added to the mixture; no DNA; only the target purified

| binding [1] | binding [2] | binding [3] | binding [4] | Binder |
| --- | --- | --- | --- | --- |
| binds | binds | binds | – | Extradenticle (Exd) (protein, UniProt P40427 1-376, methionine-S^35 labelled) MEDPNRMLAHTGGMMAPQGYGLSGQDDGQNAGSENEVRKQKDIGEILQQIMSISEQSLDEAQARKHTLNCHRMKPALFSVLCEIKEKTVLSIRNTQEEEPPDPQLMRLDNMLIAEGVAGPEKGGGGAAAASAAAASQGGSLSIDGADNAIEHSDYRAKLAQIRQIYHQELEKYEQACNEFTTHVMNLLREQSRTRPITPKEIERMVQIIHKKFSSIQMQLKQSTCEAVMILRSRFLDARRKRRNFSKQASEILNEYFYSHLSNPYPSEEAKEELARKCGITVSQVSNWFGNKRIRYKKNIGKAQEEANLYAAKKAAGASPYSMAGPPSGTTTPMMSPAPPQDSMGYPMGSGGYDQQQPYDNSMGGYDPNLHQDLSP |
| – | – | – | binds | Exd/Hth complex (complex, UniProt P40427 1-376; O46339 1-487, methionine-S^35 labelled (in the pull-down)) chain 1: MEDPNRMLAHTGGMMAPQGYGLSGQDDGQNAGSENEVRKQKDIGEILQQIMSISEQSLDEAQARKHTLNCHRMKPALFSVLCEIKEKTVLSIRNTQEEEPPDPQLMRLDNMLIAEGVAGPEKGGGGAAAASAAAASQGGSLSIDGADNAIEHSDYRAKLAQIRQIYHQELEKYEQACNEFTTHVMNLLREQSRTRPITPKEIERMVQIIHKKFSSIQMQLKQSTCEAVMILRSRFLDARRKRRNFSKQASEILNEYFYSHLSNPYPSEEAKEELARKCGITVSQVSNWFGNKRIRYKKNIGKAQEEANLYAAKKAAGASPYSMAGPPSGTTTPMMSPAPPQDSMGYPMGSGGYDQQQPYDNSMGGYDPNLHQDLSP chain 2: MAQPRYDDGLHGYGMDSGAAAAAMYDPHAGHRPPGLQGLPSHHSPHMTHAAAAAATVGMHGYHSGAGGHGTPSHVSPVGNHLMGAIPEVHKRDKDAIYEHPLFPLLALIFEKCELATCTPREPGVQGGDVCSSESFNEDIAMFSKQIRSQKPYYTADPEVDSLMVQAIQVLRFHLLELEKVHELCDNFCHRYISCLKGKMPIDLVIDERDTTKPPELGSANGEGRSNADSTSHTDGASTPDVRPPSSSLSYGGAMNDDARSPGAGSTPGPLSQQPPALDTSDPDGKFLSSLNPSELTYDGRWCRREWSSPADARNADASRRLYSSVFLGSPDNFGTSASGDASNASIGSGEGTGEEDDDASGKKNQKKRGIFPKVATNILRAWLFQHLTHPYPSEDQKKQLAQDTGLTILQVNNWFINARRRIVQPMIDQSNRAVYTPHPGPSGYGHDAMGYMMDSQAHMMHRPPGDPGFHQGYPHYPPAEYYGQHL |
| binds weakly | – | – | – | Homothorax (Hth) (protein, UniProt O46339 1-487, methionine-S^35 labelled) MAQPRYDDGLHGYGMDSGAAAAAMYDPHAGHRPPGLQGLPSHHSPHMTHAAAAAATVGMHGYHSGAGGHGTPSHVSPVGNHLMGAIPEVHKRDKDAIYEHPLFPLLALIFEKCELATCTPREPGVQGGDVCSSESFNEDIAMFSKQIRSQKPYYTADPEVDSLMVQAIQVLRFHLLELEKVHELCDNFCHRYISCLKGKMPIDLVIDERDTTKPPELGSANGEGRSNADSTSHTDGASTPDVRPPSSSLSYGGAMNDDARSPGAGSTPGPLSQQPPALDTSDPDGKFLSSLNPSELTYDGRWCRREWSSPADARNADASRRLYSSVFLGSPDNFGTSASGDASNASIGSGEGTGEEDDDASGKKNQKKRGIFPKVATNILRAWLFQHLTHPYPSEDQKKQLAQDTGLTILQVNNWFINARRRIVQPMIDQSNRAVYTPHPGPSGYGHDAMGYMMDSQAHMMHRPPGDPGFHQGYPHYPPAEYYGQHL |
